From EP4772523A1, “D-PEPTIDE AND USE THEREOF” (HIROSAKI UNIVERSITY, priority 2023, dated 2025)
At least one peptide structure holds a part that was inferred or is arguable (an end, a ring closure or a residue). Where a SMILES comes first, the peptide text is derived from it. [ ]: non-standard residue; d: D form. The star is where a group is joined. Biotin = O=C1N[C@H]2[C@H](CS[C@H]2CCCCC(=O)*)N1

The chains behind the UniProt entries cited, without tags or fusion partners. Where a name states a change or a piece, a line headed by the entry shows the natural chain unless it says otherwise.
UniProt P04083: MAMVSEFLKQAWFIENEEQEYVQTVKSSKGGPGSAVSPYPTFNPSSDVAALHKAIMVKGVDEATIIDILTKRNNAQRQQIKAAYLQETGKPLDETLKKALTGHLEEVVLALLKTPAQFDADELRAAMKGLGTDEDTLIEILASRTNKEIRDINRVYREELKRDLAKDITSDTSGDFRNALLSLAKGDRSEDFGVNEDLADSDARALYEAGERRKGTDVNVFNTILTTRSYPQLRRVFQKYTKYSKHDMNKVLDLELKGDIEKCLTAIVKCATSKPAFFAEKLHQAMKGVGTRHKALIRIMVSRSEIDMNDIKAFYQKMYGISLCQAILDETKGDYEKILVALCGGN

What was measured:
[1] = tested on: HEK293 overexpressing ANXA1-c-His; assay: Binding and intracellular uptake in HEK293 overexpressing ANXA1-c-His (fluorescence microscopy); assay type: cell-based, human; conditions: 50 µg/ml, 37°C 10 minutes; compared with HEK293 cells with negative control plasmid
D-MC16 = assay: Biolayer interferometry (BLI) binding of D-peptide to D-MC16; conditions: dhp7-immobilized sensor
L-MC16 = biological target: T1, L-MC16 (Homo sapiens, UniProt P04083); assay: Biolayer interferometry (BLI) binding affinity of D-peptides for L-MC16; conditions: versus L-MC16; biotinylated D-peptide immobilized on SSA biosensor; 37°C; 1:1 binding model
T1 construct: one added Cys residue (printed only for D-MC16); host or cells: synthetic peptide

[2] = tested on: L-MC16 mutants E6A, F7A, K9A, Q10A, W11A, F13A, and E15A; assay: BLI binding of dhp7 to L-MC16 alanine mutants versus wild type; conditions: 100 µM of E6A, E15A peptides, dhp7-immobilized sensor

Row | Compound | staining (binding and intracellular uptake) [1] | binding to D-MC16 (D-MC16) | Kd (L-MC16) [nM] | binding affinity for L-MC16 mutants compared with L-MC16WT [2]
1 | CC(C)[C@@H](NC(=O)[C@@H](CCC(=O)O)NC(=O)[C@@H](CC(N)=O)NC(=O)[C@H]1CCCN1C(=O)[C@@H](Cc1c[nH]cn1)NC(=O)CCCC[C@@H]1SC[C@@H]2NC(=O)N[C@@H]21)C(=O)N[C@H](CCCNC(=N)N)C(=O)N[C@H](CO)C(=O)O [biotin-dhp7] (Biotin-[dH][dP][dN][dE][dV][dR][dS]-OH) | stained the HEK293 overexpressing ANXA1-c-His more intensely |  |  | 
2 | CC(C)[C@@H](NC(=O)[C@@H](CCC(=O)O)NC(=O)[C@@H](CC(N)=O)NC(=O)[C@H]1CCCN1C(=O)[C@@H](Cc1c[nH]cn1)NC(=O)CCCC[C@@H]1SC[C@@H]2NC(=O)N[C@@H]21)C(=O)N[C@H](CCCNC(=N)N)C(=O)N[C@H](CO)C(=O)O [dhp7, hpnevrs] (Biotin-[dH][dP][dN][dE][dV][dR][dS]-OH) |  | did not bind | 480 | remarkably lower
